Data reported in the supplement of paper PMC5949888.
± gives the standard deviation of the averaged measurements. Most values lie at the floor of the assay. Slopes are relative: functional sequences can read slightly below zero.

tested on: Saccharomyces cerevisiae PS128 hsf1 delta, HSF1(1-493) fusion; assay: growth estimate (transactivation domain function in HSF1 fusion, heat-shock survival) (a.u. (slope of normalised read count over time)); higher = stronger growth at 37°C, i.e. more transactivation activity; conditions: library: random library

| Substance | growth estimate |
| --- | --- |
| RDS | -0.243 ± 0.0099 |
| VPTTF | < -0.25 |
| GNQGVCLCFVRRGSYVFPRS | < -0.25 |
| DLKIERKP | < -0.25 |
| YPWLFRRPSRRHARIQRD | < -0.25 |
| VITLR | < -0.25 |
| CAVVY | < -0.25 |
| QIWCPAAIALGRNSRGQGIP | < -0.25 |
| FRKGY | < -0.25 |
| GEGSFNSAVDHDVPVRLYLF | < -0.253 |
| ESGPSSEWCLKQT | < -0.25 |
| PHIRSRHVLVCRLLRTRDKD | < -0.25 |
| TFIGPA | < -0.25 |
| NDRN | < -0.25 |
| QECP | < -0.25 |
| KTVRRGHRKEVTQSHTET | < -0.25 |
| YSQTAWNSLFILRL | < -0.25 |
| GSTRSLPACVILAKRSLWGL | < -0.25 |
| VCNDAHKVF | < -0.25 |
| WLGVE | < -0.25 |
| RDPL | < -0.25 |
| GSGKWSLNSWTGFTGLRFPT | < -0.25 |
| SVWWWTRIN | < -0.25 |

| Substance | growth estimate |
| --- | --- |
| LKLMDRRYKLTEKQHLPLGS | < -0.25 |
| SRGSVAQRLKLHVSCQGSLC | < -0.25 |
| RAIAASRGTRKAI | < -0.25 |
| AYHAEGGTHV | < -0.25 |
| CDNYPATRIQ | < -0.25 |
| VYPF | < -0.25 |
| SRRLWD | < -0.25 |
| RIVGAKLKQMVGRHHLVEPA | < -0.25 |
| RIETAHPRLVAPVGVMICWI | < -0.25 |
| RFRSQGSPWALVHVKFYSPA | < -0.25 |
| DGRHRKYSITLTEL | < -0.25 |
| ARSEFR | < -0.25 |
| LDQSSGYTAFIYAPFTTPRA | < -0.25 |
| CTPAWERCKGDGRYAVHYCE | < -0.25 |
| SQATWPISLLRDCDTDCTVL | < -0.25 |
| STKAPIQH | < -0.25 |
| AVVGITPGGRMDFNIKSRTS | < -0.25 |
| YIVLSIATVS | -0.246 |
| AQFGILSAVHGPTTKERRSC | < -0.25 |
| YAWTAYEEQDRH | < -0.25 |
| LLSEIIIGK | < -0.25 |
| PSPTRRKEFRRAPSRLHVVR | < -0.25 |
| HCGEIRSSDYGASDRKVDPL | < -0.25 |

A stretch from the list above, as a working copy:

| Substance | growth estimate |
| --- | --- |
| AQFGILSAVHGPTTKERRSC | < -0.25 |
| YAWTAYEEQDRH | < -0.25 |
| LLSEIIIGK | < -0.25 |
| PSPTRRKEFRRAPSRLHVVR | < -0.25 |

(list continues)

| Substance | growth estimate |
| --- | --- |
| LTYRERGDMR | < -0.25 |
| LTGGARGHVKHDQEGRTAAA | < -0.25 |
| KVDK | < -0.25 |
| NTPNSLARFTVQCGGSPPVR | < -0.25 |
| FRYFPYNILLTQCTGLRVAQ | < -0.25 |
| GMLPR | < -0.25 |
| SVYHVAISQLTSAVASGLFI | < -0.25 |
| LEHYRGGWNSSV | < -0.25 |
| SALRCRGRTTKPHASLIPSI | < -0.25 |
| VASRDGLQGRVETSCRSFSL | < -0.25 |
| KSHG | < -0.25 |
| SVVGTRGSPSRRIGSEVHGP | < -0.25 |
| SGKLVCVPIWRLVRRLGGIK | < -0.25 |
| SEGYRR | < -0.25 |
| FFLGEPSGTLNGNNSYVGAE | < -0.25 |
| IITVSVSMTLFTTLEAIIWW | < -0.25 |
| HNRR | < -0.25 |
| YMGEERLEGTFLAIYIQIKT | < -0.25 |
| RGRQ | < -0.25 |
| QGPF | < -0.25 |
| DSINVRIRHAGRGRGTRSER | < -0.25 |
| RQHARPPLGIWQKPTSCAQY | < -0.25 |
| RLSLSFPVYCQLSGRVT | < -0.25 |

| Substance | growth estimate |
| --- | --- |
| QPLG | < -0.25 |
| PGGPSEKNGITWNDTFHRQS | < -0.25 |
| YGVGPHTILEYRGTGFGDRR | < -0.25 |
| GSQTKSVYLNQEDRSSANGS | < -0.25 |
| GLARVRGCFHYNLRVTIHS | < -0.25 |
| QEKRTE | < -0.25 |
| IVARPRTLSWKSTCEGPDSS | < -0.25 |
| VAAALTRGLQSNTPVQSRNY | < -0.25 |
| AEVA | < -0.25 |
| KAVAFRFLF | < -0.25 |
| FRC | < -0.25 |
| DRRYVQIEALRRGLHDIR | < -0.25 |
| VEREASRS | < -0.25 |
| LASNVAAALGEGANGKTSLI | < -0.25 |
| LNPRRTLLLSGSVMWRAISP | < -0.25 |
| QELRECSGRQFIHLNRVLRK | < -0.25 |
| SDTSSQGLCVLAPVLV | < -0.25 |
| YRRSQEDW | < -0.25 |
| TWSQFSLQIIKL | < -0.25 |
| IGVDRTPRLRFRVPRLLGNH | < -0.25 |
| CRLK | < -0.25 |
| KNREGKWAIAE | < -0.25 |
| VLSALAK | < -0.25 |

| Substance | growth estimate |
| --- | --- |
| HDRGITMHVNILFESGTVNV | < -0.25 |
| ELSDKDRT | < -0.25 |
| WGFCWPSPLGSLWHNIRQEE | < -0.25 |
| RKCFYPLTCRVGGFPEGPLD | < -0.25 |
| SALLGLFLDLVPRAERSRCF | < -0.25 |
| VPPVQRGRLTEFMLPWGIWW | < -0.25 |
| QDELEFWS | < -0.25 |
| TPAGSSPPRFCLLIP | < -0.25 |
| RSWRSDIIHGS | < -0.25 |
| VTGMGLPVSLVGLAPSPEYV | < -0.25 |
| QDGCVLSGIGYDGPLSHILH | < -0.25 |
| VSQDAKR | < -0.25 |
| WQQHRADTNIPS | < -0.25 |
| RNVRRQRRNVAPGFVR | < -0.25 |
| LECRGPQP | < -0.25 |
| GQGICAEYFLGGAERLMPFY | < -0.25 |
| ESYLDMLQQSRNGFH | < -0.25 |
| WQQPVDASPEEEESIPWSDR | < -0.25 |
| NCLACRTGSCGAGNLLSVFF | < -0.25 |
| LLSQCPPAS | < -0.25 |
| SEEGRCGVPVIGAENNQSEH | < -0.25 |
| RMVGRLAQPREC | < -0.25 |
| LSSKKVTESIALRSVWGQAN | < -0.25 |

| Substance | growth estimate |
| --- | --- |
| VYLELHAGADHSRTILVRRS | < -0.25 |
| YHFDRAAARRQDKAHKN | 4.7 |
| LPCSYWRRD | < -0.25 |
| PVIATVGLDRIQSRACLSRE | < -0.25 |
| LVIVPVRVLYRQTVSVIRLM | < -0.25 |
| YSSIGRT | < -0.25 |
| QRKIGQQRCTWMDRLTGASI | < -0.25 |
| GSGLQIWQRLGSAEEEPEYC | 0.0791 |
| PIRCR | < -0.25 |
| LGS | < -0.25 |
| SVIRECLYSDYER | < -0.25 |
| SKLLKAPLIVLLVR | < -0.25 |
| VIAWVSQAHKSKLLCISWLA | < -0.25 |
| SVGYGR | < -0.25 |
| TLPFIRSRDIRHTSSSGVAR | < -0.25 |
| TVFGGVTLENFLDLH | 0.649 |
| FNLQINSRAV | < -0.25 |
| RAASRTGQSRSSQQLAPGYA | < -0.25 |
| RGSARSQPLCLSSYAVTWRG | < -0.25 |
| SPYV | < -0.25 |
| RCRYLEASHRLEIKAASQIQ | < -0.25 |
| VETSRNVKDNGYRFTRRCMA | < -0.25 |
| SAEGQANFY | < -0.25 |

Taken from above:
Under growth estimate, FNLQINSRAV has < -0.25
Under growth estimate, YHFDRAAARRQDKAHKN has 4.7
Under growth estimate, RCRYLEASHRLEIKAASQIQ has < -0.25
Under growth estimate, VIAWVSQAHKSKLLCISWLA has < -0.25

The list goes on:

| Substance | growth estimate |
| --- | --- |
| PLTCRCIV | < -0.25 |
| PVQDGSMFWSKCF | < -0.25 |
| RLKLMSQVL | < -0.25 |
| QGWSRQCSVSLKRRGHSIVS | < -0.25 |
| QPCVKTTDKKPKP | < -0.25 |
| DTAASTSIDHRGEGNPAGAY | < -0.25 |
| VGREKGGSKRDSTIRPIKH | < -0.25 |
| SLRLVVGVRRARAEWVG | < -0.25 |
| CPDYVMGGTCVLPVKISYLT | < -0.25 |
| RQGKTAFQVQSDCTSTVSRV | < -0.25 |
| ENYRGCNVQNTRPGNATSPV | < -0.25 |
| GVYEEGEGSCSSV | -0.203 |
| RAVIVVTVGADVVESGYPGA | < -0.25 |
| PTCLPSF | < -0.25 |
| FQINSMR | < -0.25 |
| KTWQNRMPYFQCNLDQFLYT | < -0.25 |
| RFGNEVYVHSELQVSTTETL | < -0.25 |
| SGFRDVLPQHEHDLPRTYAQ | < -0.25 |
| TVLCSASWIQ | < -0.25 |
| CELVSTI | < -0.25 |
| VLRCNWILHFFRRCECGPRV | < -0.25 |
